The experiment relates to CD2F1 mice, L1210 leukemia ip, survival T/C. Kind of experiment: NCI In Vivo Anticancer Drug Screen. Data for tumor model L1210 Leukemia (intraperitoneal) in CD2F1 (CDF1) mice. As to conditions: T/C endpoint: mean survival time, higher T/C = longer survival. In outline: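 Read-out first: treated-group measurement over vehicle-control measurement, expressed as a ratio. Animals bore a transplanted tumor line and were dosed with compound or vehicle.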

Where [1] appears, read: dose: 75.0 mg/kg/injection, schedule: Q01DX001 (ip), vehicle: saline.
Setting [2] is: dose: 150.0 mg/kg/injection, schedule: Q01DX001 (ip), vehicle: saline.
[3] abbreviates: dose: 300.0 mg/kg/injection, schedule: Q01DX001 (ip), vehicle: saline.

The list shows only some results of the screen, not a fair sample: it covers a few groups of compounds. Not every dose and run of a compound is shown. T/C is the treated group as % of the vehicle group. Some entries give survivors of the animals treated and no T/C: the source holds a T/C of zero for them, seemingly a mark for toxic or unscored doses. Survivors were counted at the toxicity check, usually on the fifth day, unless a day is given; later deaths do not show. Schedule codes are those of the source, taken here to give the interval after Q, in days (D) or hours (H), and the number of doses after X. For survival time, the PubChem record calls one and a half times the control and up active, and a quarter to a half above the control has no call in these data; cut-offs in other NCI protocols can differ. Some entries were tested several times; the results are listed from low to high. Some T/C values are marked as having no survivor count here; that says nothing about deaths at the dose. Some T/C values carry the count of animals alive at the toxicity check (mostly the fifth day); where neither a count nor a note follows, no animal had died by that day.

On to `OC(CNCCCl)C(O)C(O)C(O)CNCCCl` (centres undefined), for which the T/C runs as follows: (dose: 1.25 mg/kg/injection, schedule: Q03HX016 (ip), vehicle: saline) 102 % of control; (dose: 2.5 mg/kg/injection, schedule: Q03HX016 (ip), vehicle: saline) 113 % of control; (dose: 3.75 mg/kg/injection, schedule: Q01DX009 (ip), vehicle: saline) 118 and 133 % of control; (dose: 5.0 mg/kg/injection, schedule: Q01DX007 (ip), vehicle: other) 127 % of control; (dose: 5.0 mg/kg/injection, schedule: Q01DX009 (ip), vehicle: other) 120 % of control; (dose: 5.0 mg/kg/injection, schedule: Q03DX003 (ip), vehicle: other) 113 % of control. The T/C runs as follows: (dose: 5.0 mg/kg/injection, schedule: Q03HX016 (ip), vehicle: saline) 124 % of control; (dose: 5.0 mg/kg/injection, schedule: Q04DX003 (ip), vehicle: other) 117 % of control; (dose: 7.5 mg/kg/injection, schedule: Q01DX009 (ip), vehicle: saline) 139 and 156 % of control; (dose: 10.0 mg/kg/injection, schedule: Q01DX007 (ip), vehicle: other) 143 % of control; (dose: 10.0 mg/kg/injection, schedule: Q01DX009 (ip), vehicle: other) 142 % of control; (dose: 10.0 mg/kg/injection, schedule: Q03DX003 (ip), vehicle: other) 132 % of control. Besides, the T/C is 154 % of control (dose: 10.0 mg/kg/injection, schedule: Q03HX016 (ip), vehicle: saline); 133 % of control (dose: 10.0 mg/kg/injection, schedule: Q04DX003 (ip), vehicle: other); 113 % of control (dose: 10.0 mg/kg/injection, schedule: Q08DX002 (ip), vehicle: saline); 148 and 189 % of control (dose: 15.0 mg/kg/injection, schedule: Q01DX009 (ip), vehicle: saline); 162 % of control (dose: 20.0 mg/kg/injection, schedule: Q01DX007 (ip), vehicle: other); 171 % of control (dose: 20.0 mg/kg/injection, schedule: Q01DX009 (ip), vehicle: other). For the same compound, the T/C (dose: 20.0 mg/kg/injection, schedule: Q03DX003 (ip), vehicle: other) was 119 % of control; the T/C (dose: 20.0 mg/kg/injection, schedule: Q03HX016 (ip), vehicle: saline) was 137 % of control; the T/C (dose: 20.0 mg/kg/injection, schedule: Q04DX003 (ip), vehicle: other) was 151 % of control; the T/C (dose: 20.0 mg/kg/injection, schedule: Q08DX002 (ip), vehicle: saline) is 126 % of control; the T/C (dose: 30.0 mg/kg/injection, schedule: Q01DX009 (ip), vehicle: saline) is 136 and 184 % of control; the T/C (dose: 40.0 mg/kg/injection, schedule: Q08DX002 (ip), vehicle: saline) is 151 % of control. Also, the T/C reads like this: (dose: 80.0 mg/kg/injection, schedule: Q08DX002 (ip), vehicle: saline) 171 % of control; (dose: 160.0 mg/kg/injection, schedule: Q08DX002 (ip), vehicle: saline) 129 % of control [7 of 10 alive].

In the case of `CP(I)(Oc1ccccc1)(Oc1ccccc1)Oc1ccccc1`, the T/C by setting is: (dose: 100.0 mg/kg/injection, schedule: Q04DX002 (sc), vehicle: saline with Tween-80) 96 % of control [survivor count not shown]; (dose: 200.0 mg/kg/injection, schedule: Q04DX002 (sc), vehicle: saline with Tween-80) 90 % of control [survivor count not shown]; (dose: 400.0 mg/kg/injection, schedule: Q04DX002 (sc), vehicle: saline with Tween-80) 104 % of control [survivor count not shown].

In the case of `O=[N+]([O-])OCC1CO1` (centres undefined), the T/C was 95 % of control [survivor count not shown] under setting [1], 93 % of control [survivor count not shown] under setting [2] and 96 % of control [survivor count not shown] under setting [3].

Turning to `CC(C)N=C(N)C(N)=NC(C)C.O=[N+]([O-])c1cc([N+](=O)[O-])c(O)c([N+](=O)[O-])c1`, the T/C is 88 % of control [survivor count not shown] (dose: 50.0 mg/kg/injection, schedule: Q04DX002 (ip), vehicle: saline with Tween-80); 100 % of control [survivor count not shown] (dose: 100.0 mg/kg/injection, schedule: Q04DX002 (ip), vehicle: saline with Tween-80); 96 % of control [survivor count not shown] (dose: 200.0 mg/kg/injection, schedule: Q04DX002 (ip), vehicle: saline with Tween-80).

In the case of `ClP1(Cl)=NP(Cl)(Cl)=NP2(=N1)NCCO2` (centres undefined), the T/C is 106 % of control under setting [1], 101 % of control under setting [2] and 93 % of control [4 of 6 alive] under setting [3].

Turning to `CN(C)c1ncnc2c1NP(=O)(c1ccccc1)N2` (centres undefined), the T/C (dose: 12.5 mg/kg/injection, schedule: Q01DX005 (ip), vehicle: water) is 96 % of control; the T/C (dose: 25.0 mg/kg/injection, schedule: Q01DX005 (ip), vehicle: water) is 96 % of control; the T/C (dose: 50.0 mg/kg/injection, schedule: Q01DX005 (ip), vehicle: water) is 94 % of control; the T/C (dose: 100.0 mg/kg/injection, schedule: Q01DX005 (ip), vehicle: water) was 97 % of control; the T/C (dose: 200.0 mg/kg/injection, schedule: Q01DX005 (ip), vehicle: water) is 100 % of control.

`O=C(OC1CN2CCC1CC2)c1ccccc1O` (centres undefined): the T/C is, setting by setting: (dose: 6.25 mg/kg/injection, schedule: Q01DX009 (ip), vehicle: saline with Tween-80) 97 % of control; (dose: 12.5 mg/kg/injection, schedule: Q01DX009 (ip), vehicle: saline with Tween-80) 100 % of control; (dose: 25.0 mg/kg/injection, schedule: Q01DX009 (ip), vehicle: saline with Tween-80) 100 % of control. Further, the survivor count is, setting by setting: (dose: 100.0 mg/kg/injection, schedule: Q04DX003 (ip), vehicle: saline with Tween-80) 2 of 6; (dose: 200.0 mg/kg/injection, schedule: Q04DX003 (ip), vehicle: saline with Tween-80) 0 of 6; (dose: 400.0 mg/kg/injection, schedule: Q04DX003 (ip), vehicle: saline with Tween-80) 0 of 6.

As for `CN(C)P(=O)(OCCCO)N(CCCl)CCCl` (centres undefined), the T/C runs as follows: (dose: 25.0 mg/kg/injection, schedule: Q01DX001 (ip), vehicle: DMSO) 91 % of control; (dose: 50.0 mg/kg/injection, schedule: Q01DX001 (ip), vehicle: DMSO) 97 % of control; (dose: 100.0 mg/kg/injection, schedule: Q01DX001 (ip), vehicle: DMSO) 93 % of control; (dose: 200.0 mg/kg/injection, schedule: Q01DX001 (ip), vehicle: DMSO) 93 % of control; (dose: 400.0 mg/kg/injection, schedule: Q01DX001 (ip), vehicle: DMSO) 96 % of control.

Source of the values: PubChem BioAssay AID256 (DTP/NCI, 2004).
